{
  "source": "patent US7745570B2",
  "about": "“PH dependent adhesive peptides” (Kansas State University Research Foundation, priority 2005, dated 2010)",
  "key": {"[1]": {"test": "Dry shear (adhesive) strength of hot-pressed glued wood specimens, ASTM D2339-98", "format": "physicochemical", "details": "for Dry shear strength: pH 12, 4% peptide, hot press 170° C."}, "[2]": {"test": "Water resistance: wet shear strength after soaking glued wood in water for 48 h", "format": "physicochemical", "details": "pH 12; for Wet shear strength: after immersion in water for 48 hr, 170° C. pressed"}, "[3]": {"details": "pH 12.0, 4% w/w peptide, hot press 130° C., 5 min"}},
  "note": "Where no end group is shown, it is not given here.",
  "data": [
    {"substance": "KKK-FLIVIGSII-KKK (KKKFLIVIGSIIKKK) [Peptide K3h9K3]", "values": [
      {"measurement": "Shear strength (adhesive strength), dry", "setting": "[1]; pH 2.2, 4% w/w peptide, hot press 130° C.", "value": "modest adhesive strength"},
      {"measurement": "Shear strength (adhesive strength), dry", "setting": "[1]; pH 6.8, 4% w/w peptide, hot press 130° C.", "value": "minimal strength"},
      {"measurement": "Dry shear strength", "setting": "[1]", "value": "3.74±0.38", "unit": "MPa"},
      {"measurement": "Dry shear strength", "setting": "[1]; listed as K3h9K", "value": "approximately 3.7 MPa"},
      {"measurement": "Shear strength (adhesive strength), dry", "setting": "[1]; [3]", "value": 3.05, "unit": "MPa"},
      {"measurement": "Shear strength (adhesive strength), dry", "setting": "[1]; pH 12.0, 4% w/w peptide, hot press 130° C., 5 min, listed as K3h K3", "value": "approximately 3.05±0.35 MPa"},
      {"measurement": "Adhesive strength in D2O", "setting": "[1]; pH 12 in D2O, hot press 130° C.", "value": "2.7±0.33", "unit": "MPa"},
      {"measurement": "Wet shear strength", "setting": "[2]", "value": "1.38±0.2", "unit": "MPa"}
    ]},
    {"substance": "KKK-FLIVIGSII-KKK-FLIVIGSII-KKK (KKKFLIVIGSIIKKKFLIVIGSIIKKK) [(K3h9)2K3]", "values": [
      {"measurement": "Dry shear strength", "setting": "[1]", "value": "3.91±0.33", "unit": "MPa"},
      {"measurement": "Shear strength (adhesive strength), dry", "setting": "[1]; [3]", "value": "2.83±0.33", "unit": "MPa"},
      {"measurement": "Wet shear strength", "setting": "[2]", "value": "1.43±0.06", "unit": "MPa"}
    ]},
    {"substance": "EEEFLIVIGSIIEEE-OH [Peptide E3h9E3, EEE-FLIVIGSII-EEE]", "values": [
      {"measurement": "Shear strength (adhesive strength), dry", "setting": "[1]; [3]", "value": "1.09±0.21", "unit": "MPa"}
    ]},
    {"substance": "XXX-FLIVIGSII-XXX [Peptide X3h9X3, X = 2,3-diaminopropionic acid]", "values": [
      {"measurement": "Shear strength (adhesive strength), dry", "setting": "[1]; [3]", "value": "3.0±0.29", "unit": "MPa"}
    ]},
    {"substance": "EEE-FLIVIGSII-KKK (EEEFLIVIGSIIKKK) [Peptide E3h9K3]", "values": [
      {"measurement": "Dry shear strength", "setting": "[1]", "value": "2.39±0.24", "unit": "MPa"},
      {"measurement": "Shear strength (adhesive strength), dry", "setting": "[1]; [3]", "value": "1.81±0.18", "unit": "MPa"},
      {"measurement": "Wet strength as percent of the dry 170° C. pressed shear strength", "setting": "[2]; 48 hr immersion", "value": 15, "unit": "%"},
      {"measurement": "Wet shear strength", "setting": "[2]", "value": "0.37±0.12", "unit": "MPa"}
    ]},
    {"substance": "KKK-FLIVIGSII-KKK-FLIVIGSII-KKK-FLIVIGSII-KKK (KKKFLIVIGSIIKKKFLIVIGSIIKKKFLIVIGSIIKKK) [(K3h9)3K3]", "values": [
      {"measurement": "Dry shear strength", "setting": "[1]", "value": "4.15±0.3", "unit": "MPa"},
      {"measurement": "Shear strength (adhesive strength), dry", "setting": "[1]; [3]", "value": "2.78±0.30", "unit": "MPa"},
      {"measurement": "Wet shear strength", "setting": "[2]", "value": "1.38±0.15", "unit": "MPa"}
    ]},
    {"substance": "KKK-FLIVIGSII-EEE (KKKFLIVIGSIIEEE) [Peptide K3h9E3]", "values": [
      {"measurement": "Adhesive strength at all three pH values", "setting": "[1]; pH 2.2, 6.8 and 12.0, hot press 130° C.", "value": "only weakly adhesive at all pH values"},
      {"measurement": "Behaviour during the immersion step (wet strength)", "setting": "[2]; prepared at either temperature (130 or 170° C.), water 48 hr", "value": "fall apart during the immersion step"}
    ]}
  ]
}
